Some of the results follow.

The chains behind the UniProt entries cited, without tags or fusion partners.
UniProt Q0JBA9, entry or part of it: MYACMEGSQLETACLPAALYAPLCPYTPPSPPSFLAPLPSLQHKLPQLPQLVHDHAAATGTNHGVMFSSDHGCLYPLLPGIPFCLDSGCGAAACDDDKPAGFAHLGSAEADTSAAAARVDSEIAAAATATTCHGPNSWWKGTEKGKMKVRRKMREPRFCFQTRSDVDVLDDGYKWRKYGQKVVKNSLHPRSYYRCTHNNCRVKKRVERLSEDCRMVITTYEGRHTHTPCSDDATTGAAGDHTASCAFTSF

The source of these data is article PMC7819943, “Rice protein-binding microarrays: a tool to detect cis-acting elements near promoter regions in rice”.

The experiment deals with OsWRKY34 (Oryza sativa, UniProt Q0JBA9 1-250). Description: protein-binding microarray (RPBM); PBS, 2% BSA, 51.3 ng/ul salmon testes DNA, 50 uM zinc acetate, 200 nM TF, 25 C, 1 h; high values mean tight binding. The following applies: protein: recombinant; tags: N-terminal polyhistidine and DsRed monomer fusion (pET32a); label: CyDye5-dUTP incorporated in the synthesized complementary strand; 3' TTTTT single-stranded linker to array surface; dsDNA, one strand shown. Put shortly: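 Using Ni–NTA, transcription factors fused N-terminally to polyhistidine and DsRed were purified after expression in E. coli BL21-CodonPlus. These were incubated at 200 nM with a blocked, double-stranded custom Agilent array for 1 h at 25 °C in a buffer containing 50 µM zinc acetate, and the array was washed. The binding signal is per-feature fluorescence intensity (arbitrary units) on an Axon 4000B scanner.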
As to “ATGATGGCTTTTCCAGCAGCTGCTCCAGTTCCTGTCGGGACGGAGTCACCTAGTGCAG”, the binding signal was 9240 fluorescence intensity (a.u.).
Under “GGCGTTGCTGCTGCTAGCTGTTGTTGTTGGGCATCGTTCTCGGAGTCACCTAGTGCAG” stands 10500 fluorescence intensity (a.u.).
In the case of “CCCATCATCGCGCGCGTTTTCGCGTACAATTTGGTACTCCCGGAGTCACCTAGTGCAG” it was 10200 fluorescence intensity (a.u.).
Under “GTCATTTCGGCCTATATCGGCCTCTATGGTTTCCAAATTCCGGAGTCACCTAGTGCAG” stands 8540 fluorescence intensity (a.u.).
For “GTGTTTCCCATGGTTTGCACCAGTCTCCTCTGATGCAGTCCGGAGTCACCTAGTGCAG”, the binding signal is 26400 fluorescence intensity (a.u.).
For “ACTGTTGGAGTGGGAGTGGGGAATTCTAGGGTTTTGCAATCGGAGTCACCTAGTGCAG”, the binding signal is 12300 fluorescence intensity (a.u.).
As to “ACTAGGCTATAGACCCGTTCGTTATCCATTCTTAGTTTCACGGAGTCACCTAGTGCAG”, the binding signal is 9510 fluorescence intensity (a.u.).
Under “AGGCTTTCGCTATGACTTGTCCCCTGGAAAGGTCTATTTACGGAGTCACCTAGTGCAG” stands 8110 fluorescence intensity (a.u.).
In the case of “ATGGGCCTAACAGGTAGACACGTTCGCTCATCTCATTCGTCGGAGTCACCTAGTGCAG”, the binding signal is 8210 fluorescence intensity (a.u.).
Under “CGTTGATCATTTATTGACATTATAGTTACTCTGCAGTGCACGGAGTCACCTAGTGCAG” stands 8580 fluorescence intensity (a.u.); under “ACACCGGCCGCCGAGCTCGCCTCCTCTCTTGTCGCCCACACGGAGTCACCTAGTGCAG”, 10100 fluorescence intensity (a.u.); under “ATACTACTCCTTTGACTCCTCCGCTTTAAAATTTCCCTCTCGGAGTCACCTAGTGCAG”, 12200 fluorescence intensity (a.u.).
Under “ATTCAGGATGTTATTTCTCTCATATTTGAGAAGGCTGTTTCGGAGTCACCTAGTGCAG” stands 9190 fluorescence intensity (a.u.).
Under “GTCGTCCTCCGCGACCGATCCCGTTGCAGATCTCGCGGCCCGGAGTCACCTAGTGCAG” stands 8920 fluorescence intensity (a.u.).
In the case of “AGTACACCACATATTAACTCATGGATATCAATAATTGCACCGGAGTCACCTAGTGCAG”, the binding signal is 8450 fluorescence intensity (a.u.).
In the case of “TTATATGATGTTGTTGACTTTTTGACAAATGTTTAATCATCGGAGTCACCTAGTGCAG”, the binding signal is 8810 fluorescence intensity (a.u.).
Under “TTGATCATCACTTTTTTTTTCAACGAAAACTTGTTCGTCGCGGAGTCACCTAGTGCAG” stands 9180 fluorescence intensity (a.u.); under “ATATTGTTCTCCTTTCATCTCCCTTTCTATCATTAGTGATCGGAGTCACCTAGTGCAG”, 8580 fluorescence intensity (a.u.).
Under “CTCTCCCGCGCTTTCTCTTCCCGCCATCTCCCTATAAATGCGGAGTCACCTAGTGCAG” stands 8540 fluorescence intensity (a.u.); under “CCTCCGTTTCAGGTTACAGGACTTTCTAGCATTGCCCACACGGAGTCACCTAGTGCAG”, 8080 fluorescence intensity (a.u.).
Under “AAGGGTGTGTTTAGTTGATTGGCTAATTTTTTTTTAAGTACGGAGTCACCTAGTGCAG” stands 8680 fluorescence intensity (a.u.); under “GCCATCTATTCTTCACACCTCATTCAATCCTAGCCATTCACGGAGTCACCTAGTGCAG”, 13900 fluorescence intensity (a.u.).
With “TAAAGTAGATTAATTCGCCCTATAGCTAGCTTTATTATCACGGAGTCACCTAGTGCAG”, the binding signal is 8670 fluorescence intensity (a.u.).
In the case of “TACTTGTCCAGTTCTTACACTCGTCTCACTTTACTACTCACGGAGTCACCTAGTGCAG” it was 10100 fluorescence intensity (a.u.).
Under “CATGGTAATGTTTACTCAGTATTTGGGTCTTGTCCTTTCTCGGAGTCACCTAGTGCAG” stands 10500 fluorescence intensity (a.u.).
Under “CGTGCTCCGACAATCCCGCCCGTCCATCGCCGCGGCCCCGCGGAGTCACCTAGTGCAG” stands 9290 fluorescence intensity (a.u.); under “TCGATAATGACGGGCAACGTAAAAAGTCAACGCACACTCCCGGAGTCACCTAGTGCAG”, 14600 fluorescence intensity (a.u.).
For “CCCGTTCTGTTCTTGCAAGCGTGAAGCCATTTCCCATTTTCGGAGTCACCTAGTGCAG”, the binding signal was 9030 fluorescence intensity (a.u.).
Under “TTATCTGCCCTTTGTTTGTCCGGTTTTGTTCATGTCCTTACGGAGTCACCTAGTGCAG” stands 11100 fluorescence intensity (a.u.); under “GCAGCCTTTCTGAAAATATTTGCCACCTTTCACTTGTTCTCGGAGTCACCTAGTGCAG”, 11200 fluorescence intensity (a.u.); under “AGCCAAAAGGCAGCTGGCCACGTCTAATCTGGTTTCCATCCGGAGTCACCTAGTGCAG”, 8920 fluorescence intensity (a.u.).
In the case of “GATTCGTTATAGGCCCATCGATCTTACTAATAAAATGATTCGGAGTCACCTAGTGCAG” it was 9550 fluorescence intensity (a.u.).
In the case of “GGGTCTTTTTTTGCTTCGGTTGGTCTTGCCTCTCGCTTAGCGGAGTCACCTAGTGCAG” it was 11200 fluorescence intensity (a.u.); in that of “GGTAAACATTCTCCGTTCAGTTATTAATATTTGATGTTTACGGAGTCACCTAGTGCAG”, 8910 fluorescence intensity (a.u.); in that of “CTCCTCGTCGGTGTCCTCCTCCTCCGCCGCCGCCTCCGCGCGGAGTCACCTAGTGCAG”, 9260 fluorescence intensity (a.u.).
For “TCGTCATCCTGCATCGTCGATTCCCCACGCCTCGATCTCCCGGAGTCACCTAGTGCAG”, the binding signal was 9750 fluorescence intensity (a.u.).
Under “ACGGCCGTGTGTGTGTTCTTGGCGTGTTGGTGTGCGTGGACGGAGTCACCTAGTGCAG” stands 9040 fluorescence intensity (a.u.).
In the case of “GGAGGTGGGGATGGTGGGGATTGTTGCAGCCTCGCAGTAACGGAGTCACCTAGTGCAG” it was 12400 fluorescence intensity (a.u.); in that of “CCAATGCCGTCGCCACCCACATCACCACCCGGCGCACTCACGGAGTCACCTAGTGCAG”, 8730 fluorescence intensity (a.u.).
In the case of “ACCACCATTCACCAATCACCACCAGTGACCGCGCCGACCACGGAGTCACCTAGTGCAG” it was 10800 fluorescence intensity (a.u.).
With “TTAGCAATTTCGGCAAAATAGACCAAGCACACGTTTTCTTCGGAGTCACCTAGTGCAG”, the binding signal was 8170 fluorescence intensity (a.u.).
Under “GTAGGAGGAGGAGGAGGAGGTGGTGGTGGTGGTGGTGATGCGGAGTCACCTAGTGCAG” stands 15100 fluorescence intensity (a.u.).
